Values as published with doi:10.1371/journal.pone.0140310, rounded.

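Human melanoma cells were exposed to a pair of drugs for 72 h in 1,536-well plates and read by automated microscopy after fixing and staining. Each value is the cleaved-PARP-positive fraction of nuclei relative to DMSO-treated wells, in %, so that 100 equals the control and higher values mean more apoptosis. Concentrations were fixed for each drug; these are the higher of two levels. These are primary screening values without error estimates. The marker varies much from line to line, for technical or biological reasons.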 This is part of the screen, not chosen by result. A dash means that no value is listed here.

Compounds and concentrations:
FH535: Cc1cc([N+](=O)[O-])ccc1NS(=O)(=O)c1cc(Cl)ccc1Cl at 5000 nM
decitabine: Nc1ncn([C@H]2C[C@H](O)[C@@H](CO)O2)c(=O)n1 at 500 nM
tanespimycin: C=CCNC1=C2C[C@@H](C)C[C@H](OC)[C@H](O)[C@@H](C)/C=C(\C)[C@H](OC(N)=O)[C@@H](OC)/C=C\C=C(/C)C(=O)NC(=CC1=O)C2=O at 10 nM
dovitinib: CN1CCN(c2ccc3nc(-c4c(N)c5c(F)cccc5[nH]c4=O)[nH]c3c2)CC1 at 500 nM
selumetinib: Cn1cnc2c(F)c(Nc3ccc(Br)cc3Cl)c(C(=O)NOCCO)cc21 at 75 nM
LFM-A13: C/C(O)=C(\C#N)C(=O)Nc1cc(Br)ccc1Br at 10000 nM
pazopanib: Cc1ccc(Nc2nccc(N(C)c3ccc4c(C)n(C)nc4c3)n2)cc1S(N)(=O)=O at 2000 nM
OSU-03012: NCC(=O)Nc1ccc(-n2nc(C(F)(F)F)cc2-c2ccc3c(ccc4ccccc43)c2)cc1 at 5000 nM

Combination,G-361,UACC-257,WM3526,501mel,A101D,IST-MEL1
LFM-A13 + selumetinib,246,28.2,377,378,278,127
decitabine + pazopanib,126,42.6,139,-,83.9,118
OSU-03012 + tanespimycin,118,362,428,-,213,231
FH535 + tanespimycin,1410,111,130,50.0,148,76.5
LFM-A13 + dovitinib,465,38.3,260,120,45.7,70.5
selumetinib + decitabine,423,81.1,154,-,93.4,113
selumetinib + dovitinib,530,112,430,-,51.1,3660
dovitinib + FH535,359,107,154,117,70.3,250
pazopanib + FH535,451,541,259,164,195,165
dovitinib + tanespimycin,140,89.7,392,-,98.4,144
OSU-03012 + pazopanib,391,193,494,-,120,137
pazopanib + selumetinib,311,86.1,324,-,90.1,60.1
pazopanib + LFM-A13,117,85.7,71.3,74.6,125,815
tanespimycin + decitabine,148,95.8,215,-,98.7,326
selumetinib + FH535,443,210,185,-,90.3,157
OSU-03012 + selumetinib,247,160,414,-,77.3,46.7
decitabine + OSU-03012,82.6,181,222,-,130,27.7
LFM-A13 + tanespimycin,206,27.8,154,116,25.5,75.5
dovitinib + pazopanib,316,46.4,132,-,97.7,133
OSU-03012 + FH535,367,274,249,7420,188,101
dovitinib + OSU-03012,331,97.0,476,-,142,51.9
decitabine + LFM-A13,109,38.8,57.8,67.1,112,86.1
tanespimycin + selumetinib,295,30.0,565,-,118,247

Repeated from the top, 2 entries:

| Combination | G-361 | UACC-257 | WM3526 | 501mel | A101D | IST-MEL1 |
|---|---|---|---|---|---|---|
| LFM-A13 + selumetinib | 246 | 28.2 | 377 | 378 | 278 | 127 |
| decitabine + pazopanib | 126 | 42.6 | 139 | - | 83.9 | 118 |